Data on 41 compounds can be found in PMC12670160, “A drug-repurposing screen of FDA- and EMA-approved drugs identifies two NF-κB inhibitors active against eumycetoma” (Journal of Antimicrobial Chemotherapy, 2025).

Counter-ions that a name gives are not always drawn. The whole screen tested about 5,300 compounds, of which about 130 (2.5%) showed an effect of 50% or more. Some of the results follow.

The subject of this experiment is M. mycetomatis strain mm55. The note with it: primary screen, metabolic activity vs growth control; 96 h, 2 µM; inhibitor.
Regarding `O=C(O)c1c2ccccc2cc2ccccc12` [ONC0001651, 9anthracenecarboxylicacid], the “% viability” value amounted to 71.02%.

Turning to `COc1ccc(-c2cc(=O)c3c(O)c(OC)c(O)cc3o2)cc1OC` [ONC0000908, eupatilin], the “% viability” value is recorded as 85.5%.

As for `Cc1ccccc1N=Nc1ccc(N=Nc2c(O)ccc3ccccc23)c(C)c1` [ONC0003430, solvent red 24], the “% viability” value was 74.44%.

Turning to `Cc1cc(Oc2ccc3nc(COc4ccc(CC5SC(=O)NC5=O)cc4)n(C)c3c2)cc(C)c1N` (centres unmarked) [ONC0001010, inolitazone dihydrochloride], the “% viability” value was 82.01%.

On to `CO/N=C(\C(=O)N[C@@H]1C(=O)N2C(C(=O)O)=C(COC(C)=O)CS[C@H]12)c1csc(N)n1` [ONC0005586, cefotaxime], for which the “% viability” value is 73.74%.

Take `O=C(NCCCN1CCOCC1)c1ccc(Cl)cc1` [ONC0002344, eprobemide]: the “% viability” value was 106.6%.

As to `Clc1ccc(C2(c3ccc(-c4cn[nH]c4)cc3)CCNCC2)cc1` [ONC0005013, at7867], the “% viability” value was found to be 72.74%.

As for `COc1cc(CNC(=O)CCCC/C=C/C(C)C)ccc1O` [ONC0000673, capsaicin], the “% viability” value is 103%.

As for `C[C@]12CC[C@@H]3c4ccc(O)cc4C[C@@H](CCCCCCCCC[S+]([O-])CCCC(F)(F)C(F)(F)F)[C@H]3[C@@H]1CC[C@@H]2O` (some centres unmarked) [ONC0003081, fulvestrant], the “% viability” value worked out at 86.05%.

For the compound `NC(=O)N/N=C/c1ccc(Oc2ccc(F)cc2)cc1` [ONC0003109, co102862], the “% viability” value came out at 81.41%.

Turning to `CNC(=O)[C@@H](NC(=O)[C@H](CC(C)C)[C@H](O)C(=O)NO)C(C)(C)C` [ONC0002237, marimastat], the “% viability” value was found to be 70.98%.

In the case of `NC1=N[C@@]2(c3cc(NC(=O)c4ccc(F)cn4)ccc3F)COC[C@@H]2CS1` [ONC0004876, ly2886721], the “% viability” value is recorded as 84.29%.

For the compound `O=C(CCCl)NCCc1ccccc1` [ONC0002402, fenaclon], the “% viability” value worked out at 62.84%.

As for `NC1(Cc2ccc(Cl)cc2)CCN(c2ncnc3[nH]ccc23)CC1` [ONC0005032, cct128930], the “% viability” value was found to be 76.96%.

Take `CC(=O)Nc1nnc(S(N)(=O)=O)s1` [ONC0000303, acetazolamide]: the “% viability” value amounted to 89.44%.

Regarding `Nc1nc(OCc2cc(Br)cs2)c2[nH]cnc2n1` [ONC0004536, lomeguatrib], the “% viability” value was determined as 50.63%.

On to `CCCCOc1ccc(C(=O)Nc2ccc(F)cc2F)cc1` [ONC0005047, vu 0357121 vu 0357121 vu 0357121], for which the “% viability” value came to 78.07%.

As to `CC(=O)Nc1c(I)cc(I)c(C(=O)O)c1I` [ONC0002084, acetrizoic acid], the “% viability” value was found to be 74.91%.

For `CN1C(C(=O)Nc2ccccn2)C(=O)c2sc(Cl)cc2S1(=O)=O` (centres unmarked) [ONC0004064, lornoxicam], the “% viability” value came out at 121%.

For the compound `Cc1cc2cc3c(C)cc(=O)oc3c(C)c2o1` [ONC0003238, trioxsalen], the “% viability” value was 111.2%.

Consider `CC(C)Oc1ccc2c(=O)c(-c3ccccc3)coc2c1` [ONC0005349, ipriflavone], for which the “% viability” value is recorded as 70.4%.

As to `CC(C)N1CCN(c2ccc(C(=O)c3c(-c4ccc(O)cc4)sc4cc(O)ccc34)cc2)CC1` [ONC0003015, y134], the “% viability” value came to 103.8%.

In the case of `Clc1ccc2nsnc2c1NC1=NCCN1` [ONC0002669, tizanidine], the “% viability” value turned out to be 52.09%.

Take `CCCCOc1cc(C(=O)OCCN(CC)CC)ccc1N` [ONC0003963, benoxinate hydrochloride]: the “% viability” value is 99.37%.

With `O=S(=O)(O)c1ccc2[nH]c(-c3ccccc3)nc2c1` [ONC0003478, phenylbenzimidazolesulfonicacid], the “% viability” value amounted to 71.71%.

For the compound `Nc1c[n+](N2CCOCC2)no1` [ONC0003799, linsidomine], the “% viability” value is recorded as 49.48%.

In the case of `CCCCN(CC)c1nc(C)nc2c1c(C)c(C)n2-c1c(C)cc(C)cc1C` [ONC0000219, antalarmin], the “% viability” value is reported as 83.54%.

As for `COc1cc(N2CCN(C)CC2)ccc1Nc1ncc2c(n1)N(C)c1ccccc1C(=O)N2C` [ONC0001479, erk5in1], the “% viability” value was 59.93%.

`C/C=C(/C)C(=O)O[C@H]1C(C)=C[C@]23C(=O)[C@@H](C=C(CO)[C@@H](O)[C@]12O)[C@H]1[C@@H](C[C@H]3C)C1(C)C` [ONC0002089, ingenol mebutate]: the “% viability” value was 57.77%.

For `COc1cc([C@H]2Oc3cc([C@H]4Oc5cc(O)cc(O)c5C(=O)[C@@H]4O)ccc3O[C@@H]2CO)ccc1O` [ONC0004280, silibinin], the “% viability” value worked out at 61.38%.

For the compound `CC(C)C(=O)Nc1ncc(-c2cc(C(F)F)nn2-c2c(Cl)cccc2Cl)s1` [ONC0000401, limki3], the “% viability” value amounted to 71.78%.

Regarding `N#C/C(=C1/SC[C@@H](c2ccc(Cl)cc2Cl)S1)n1ccnc1` [Luliconazole], the “% viability” value is listed as 0.7126%.

As for `O=C(O)[C@H](O)[C@H](O)[C@@H](O)[C@H](O)[C@H](O)CO` [ONC0003272, calcium gluceptate], the “% viability” value is listed as 92.89%.

Turning to `CCOC(=O)C1=C(N)Oc2ccc(Br)cc2C1C(C#N)C(=O)OCC` (centres unmarked) [ONC0004440, ha141], the “% viability” value is 120.8%.

Regarding `Cc1ccc(S(=O)(=O)Nc2nc3ccccc3nc2Nc2ccc3nsnc3c2)cc1` [ONC0005006, xl147 analogue], the “% viability” value came out at 88.37%.

As to `CC(C)c1ccccc1S(=O)(=O)c1cc(N)c2ncccc2c1[N+](=O)[O-]` [ONC0000164, pd160170], the “% viability” value was 85.54%.

With `CC(C)(C)c1cc(O)c(C(C)(C)C)cc1O` [ONC0000112, bhq], the “% viability” value is 80.44%.

Turning to `CCC(C)c1ccc(NC(=O)Cn2cnc3c2c(=O)n(C)c(=O)n3C)cc1` (centres unmarked) [ONC0001725, tcs5861528], the “% viability” value came out at 79.67%.

On to `C[C@H]1NCc2cc(-c3ccc4c(=O)c(C(=O)O)cn(C5CC5)c4c3OC(F)F)ccc21` [ONC0001069, garenoxacin mesylate hydrate], for which the “% viability” value came out at 70.54%.

For `CC[C@@H]1C(=O)N(C)c2cnc(Nc3ccc(C(=O)N[C@H]4CC[C@H](N5CCN(CC6CC6)CC5)CC4)cc3OC)nc2N1C(C)C` [ONC0005061, bi6727 volasertib], the “% viability” value is given as 89.64%.

Take `CN(C)CCc1ccc(O)cc1` [ONC0002812, hordenine]: the “% viability” value stood at 97.89%.
